Source: US20210059933A1, “HYDROGELS AS ORAL DELIVERY DOSAGE FORMS, METHODS OF MAKING AND USING SAME” (priority 2019, published 2021)
At least one structure is not confirmed: it was looked up by name or label, or the drawing left a doubt. Some entries share one result that the patent states for a list of compounds.

Key:
[1] = Release of drug from drug-loaded disintegrating hydrogel into simulated gastric fluid, supersaturation by UV-vis; details: drug loading level of 29% by weight, pure acetal cross-linker hydrogel
Procedure: A disintegrating hydrogel is first formed from 0.125 mL of a solution of dimethylformamide containing 25% by volume of the cross-linker triethylene glycol di[ethyl-1-methacryloyloxy poly(ethylene glycol) acetal] and 5% by volume of the photoinitiator 2-hydroxy-2-methylpropiophenone then purified by washing several times in ethanol. This disintegrating hydrogel is then transferred to the same solvent used to maximize the dissolution of the active pharmaceutical ingredient of interest. The hydrogel is transferred to a silicone mold and heated for a minimum amount of time to evaporate a majority of the solvent soaked into the hydrogel pores. […] The mass of the active pharmaceutical ingredient contained in the disintegrating hydrogel is determined experimentally then normalized by the combined mass of both components to quantify the weight fraction of the active pharmaceutical ingredient.
The hydrogel is added to the vial and allowed to dissolve over the course of 2 hours. The presence of the active pharmaceutical ingredient in the aqueous solution is monitored by ultraviolet-visible spectrometry to quantify the concentration relative to the inherent solubility of the active pharmaceutical ingredient without a hydrogel present. […]

[2] = Dissolution of drug encapsulated in acid-hydrolysable hydrogels in 0.1M HCl solution (pH=1); format: physicochemical; details: immediate release acid-hydrolysable hydrogels
Description: FIG. 3 is a dissolution profile of vitamin E (tocopherol) encapsulated at various drug loading levels in hydrogels composed of 25% by volume acetal cross-linker into a 0.1M HCl solution (pH=1).
The hydrogel labelled acetal hydrogel [w/ 10% surfactant] {w/ 15% surfactant} were synthesized by polymerizing a pre-cursor solution containing 25% [20%] {20%} by volume of the triethylene glycol di[ethyl-1-methacryloyloxy poly(ethylene glycol) acetal] cross-linker, 0% [3.9%] {3.9%} by volume of methyl methacrylate, 0% [6.1%] {6.1%} by volume of dimethylaminoethyl methacrylate, and 0% [10%] {15%} by volume of a hydrolytically hydrolysable surfactant monomer: acetaldehyde-(stearyl PEG-20 ether)-(acrylate ethylene glycol) acetal. Each drug substance is loaded into the pores of the hydrogel by first dissolving in ethanol and adding the organic solution into a silicone mold containing the pre-formed and washed hydrogel followed by evaporation of the solvent. Sufficient drug substance solution is added to the mold to reach a range of drug loading values.

Structure (SMILES)	highest level of supersaturation achieved [1]	time for release of 80% of the encapsulated drug [2]
CCCCN(CCCC)CC(O)c1cc(Cl)cc2c1-c1ccc(Cl)cc1/C2=C/c1ccc(Cl)cc1 (stereo not drawn) [lumefantrine]	13 times the saturation concentration	no more than 40 minutes
CC(=O)[C@H]1CC[C@H]2[C@@H]3CCC4=CC(=O)CC[C@]4(C)[C@H]3CC[C@]12C [progesterone]	–	no more than 40 minutes
